Among the data in publication PMC3025325, “Identification of a κ-opioid agonist as a potent and selective lead for drug development against human African trypanosomiasis” (Biochemical Pharmacology, 2010) are EC50 values, retold here.

The assay relates to bloodstream forms of Trypanosoma brucei. The assay is described as follows: Resazurin cell viability assay, EC50 determinations against T. brucei. Particulars: read-out: EC50 of opioid receptor ligands against T. brucei. The assay is classed as cell-based, T. b. brucei (strain 427).

Molecules are shown by their SMILES.

Regarding `C=CCN1CC[C@]23c4c5ccc(O)c4O[C@H]2C(=O)CC[C@@]3(O)[C@H]1C5` [Naloxone], the EC50 was more than 100 µM.
